Results taken from doi:10.1101/493791.
These are yes or no findings as the source states them, for the method shown. In cells and extracts the contact can be indirect. Some results given as binding are weak or reduced against the parent protein; the word gives no strength. For some assays here: Where a sequence is shown, tags or fusion partners need not be part of it. Values belong to the molecule of their own block, whether it stands above or below them.

The chains behind the UniProt entries cited, without tags or fusion partners. Where a name states a change or a piece, a line headed by the entry shows the natural chain unless it says otherwise. A line that says so, or that is headed by a name, gives the form on record, which may keep a tag or linker.
UniProt Q969H0: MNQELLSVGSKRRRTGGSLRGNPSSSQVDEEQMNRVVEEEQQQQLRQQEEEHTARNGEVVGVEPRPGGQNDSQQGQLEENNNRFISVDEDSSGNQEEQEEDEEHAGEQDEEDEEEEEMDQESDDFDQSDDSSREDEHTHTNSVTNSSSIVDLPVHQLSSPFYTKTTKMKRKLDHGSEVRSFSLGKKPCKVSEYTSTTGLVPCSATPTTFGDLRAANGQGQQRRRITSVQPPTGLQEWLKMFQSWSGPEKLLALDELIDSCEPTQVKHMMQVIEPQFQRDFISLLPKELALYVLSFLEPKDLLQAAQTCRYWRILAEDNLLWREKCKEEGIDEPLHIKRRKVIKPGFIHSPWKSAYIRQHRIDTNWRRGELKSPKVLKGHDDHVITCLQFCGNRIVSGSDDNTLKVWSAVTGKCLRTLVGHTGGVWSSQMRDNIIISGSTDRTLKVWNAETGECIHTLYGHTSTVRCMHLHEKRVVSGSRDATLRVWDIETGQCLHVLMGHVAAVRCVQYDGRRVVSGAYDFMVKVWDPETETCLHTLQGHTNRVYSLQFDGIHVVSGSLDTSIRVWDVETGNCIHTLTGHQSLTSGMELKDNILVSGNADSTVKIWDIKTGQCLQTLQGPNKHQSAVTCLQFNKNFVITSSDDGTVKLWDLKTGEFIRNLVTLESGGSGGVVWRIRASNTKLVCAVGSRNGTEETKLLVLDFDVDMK
Flag-FBXW7αΔ106-126 (Q969H0, form named): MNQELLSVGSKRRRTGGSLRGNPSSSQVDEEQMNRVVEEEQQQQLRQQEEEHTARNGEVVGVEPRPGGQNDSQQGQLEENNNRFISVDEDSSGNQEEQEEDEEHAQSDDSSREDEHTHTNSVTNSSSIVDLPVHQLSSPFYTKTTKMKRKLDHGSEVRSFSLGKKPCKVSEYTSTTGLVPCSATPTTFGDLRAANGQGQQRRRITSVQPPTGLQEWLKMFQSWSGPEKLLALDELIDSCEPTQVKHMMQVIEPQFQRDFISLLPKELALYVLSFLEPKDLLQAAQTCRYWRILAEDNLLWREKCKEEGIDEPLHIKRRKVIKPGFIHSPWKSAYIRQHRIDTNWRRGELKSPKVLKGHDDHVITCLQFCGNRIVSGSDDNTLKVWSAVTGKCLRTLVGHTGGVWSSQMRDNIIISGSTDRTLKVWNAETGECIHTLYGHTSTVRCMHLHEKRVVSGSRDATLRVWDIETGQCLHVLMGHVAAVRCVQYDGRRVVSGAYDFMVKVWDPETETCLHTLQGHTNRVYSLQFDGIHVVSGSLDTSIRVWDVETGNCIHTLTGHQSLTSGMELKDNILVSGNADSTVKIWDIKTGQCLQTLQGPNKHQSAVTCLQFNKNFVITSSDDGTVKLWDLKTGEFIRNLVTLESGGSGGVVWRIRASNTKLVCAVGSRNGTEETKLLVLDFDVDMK

Experiments:
Assay in all cases: co-IP
Flag-FBXO45 (HeLa) = target: T1, Flag-FBXO45 (HeLa) (UniProt P0C2W1)
T1 sequence: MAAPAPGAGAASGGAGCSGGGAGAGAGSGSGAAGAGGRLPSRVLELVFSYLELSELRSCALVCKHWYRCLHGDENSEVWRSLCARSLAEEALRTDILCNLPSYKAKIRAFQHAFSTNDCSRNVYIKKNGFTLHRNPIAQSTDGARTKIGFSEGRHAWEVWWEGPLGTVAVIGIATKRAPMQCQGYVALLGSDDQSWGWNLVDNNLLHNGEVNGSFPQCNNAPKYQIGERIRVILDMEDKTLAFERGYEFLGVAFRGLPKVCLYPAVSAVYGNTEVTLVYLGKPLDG

[1] = target: Flag-FBXW7αΔ106-126 (human) (UniProt Q969H0)
Flag-FBXO45 (HEK-293T) = target: T2, Flag-FBXO45 (HEK-293T) (UniProt P0C2W1)
T2 sequence: T1 sequence

HA-FBXO45 = target: T3, HA-FBXO45 (UniProt P0C2W1)
T3 sequence: T1 sequence

[2] = target: Flag-FBXW7α (full-length) (human) (UniProt Q969H0)
Flag-MYCBP2(1951-2950) = target: T4, Flag-MYCBP2(1951-2950) (UniProt O75592)
T4 sequence: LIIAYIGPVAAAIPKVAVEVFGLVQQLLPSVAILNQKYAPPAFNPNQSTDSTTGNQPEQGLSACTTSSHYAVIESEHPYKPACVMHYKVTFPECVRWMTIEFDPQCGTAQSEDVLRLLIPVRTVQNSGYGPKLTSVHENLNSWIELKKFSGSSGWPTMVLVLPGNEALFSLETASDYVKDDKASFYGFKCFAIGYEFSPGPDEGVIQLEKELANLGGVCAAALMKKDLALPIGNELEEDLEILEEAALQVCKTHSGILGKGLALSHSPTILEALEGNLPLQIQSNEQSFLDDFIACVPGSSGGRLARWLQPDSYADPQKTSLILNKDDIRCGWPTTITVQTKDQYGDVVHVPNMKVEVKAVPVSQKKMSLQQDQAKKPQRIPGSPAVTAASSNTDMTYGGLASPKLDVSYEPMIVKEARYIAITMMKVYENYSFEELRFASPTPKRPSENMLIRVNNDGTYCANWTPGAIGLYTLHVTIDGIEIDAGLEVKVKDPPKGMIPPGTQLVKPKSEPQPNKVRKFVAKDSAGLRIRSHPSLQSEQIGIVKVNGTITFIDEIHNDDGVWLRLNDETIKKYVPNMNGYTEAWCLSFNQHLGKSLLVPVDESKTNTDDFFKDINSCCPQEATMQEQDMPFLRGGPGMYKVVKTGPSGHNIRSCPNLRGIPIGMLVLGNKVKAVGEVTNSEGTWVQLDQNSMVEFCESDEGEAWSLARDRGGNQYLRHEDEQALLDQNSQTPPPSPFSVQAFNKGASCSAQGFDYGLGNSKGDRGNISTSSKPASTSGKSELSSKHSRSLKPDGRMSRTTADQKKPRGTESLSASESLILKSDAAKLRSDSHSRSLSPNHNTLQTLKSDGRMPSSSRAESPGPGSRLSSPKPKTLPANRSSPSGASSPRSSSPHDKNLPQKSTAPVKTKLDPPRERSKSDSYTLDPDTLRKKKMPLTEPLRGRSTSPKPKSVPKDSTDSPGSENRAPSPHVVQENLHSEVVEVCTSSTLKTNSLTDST

- binding (Flag-FBXO45 (HeLa)): binds
Molecule: FBXW7α (endogenous, HeLa) (from UniProt Q969H0 1-707)

- binding [1]: no binding
Molecule: MYCBP2 (endogenous) (from UniProt O75592 1-4678)

- binding (Flag-FBXO45 (HEK-293T)): binds
- binding (HA-FBXO45): binds
Molecule: FBXW7α (endogenous, HEK-293T) (from UniProt Q969H0 1-707)

- binding [2]: binds
- binding [1]: no binding
- binding (Flag-MYCBP2(1951-2950)): binds
B1: FBXO45 (endogenous) (protein, UniProt P0C2W1 1-286)
chain: T1 sequence

- binding (Flag-MYCBP2(1951-2950)): binds
B2: HA-FBXO45 (protein, UniProt P0C2W1 1-286)
chain: T1 sequence
